In one assay the target is T1, FLAG-tagged endoglin (UniProt P17813).
T1 sequence: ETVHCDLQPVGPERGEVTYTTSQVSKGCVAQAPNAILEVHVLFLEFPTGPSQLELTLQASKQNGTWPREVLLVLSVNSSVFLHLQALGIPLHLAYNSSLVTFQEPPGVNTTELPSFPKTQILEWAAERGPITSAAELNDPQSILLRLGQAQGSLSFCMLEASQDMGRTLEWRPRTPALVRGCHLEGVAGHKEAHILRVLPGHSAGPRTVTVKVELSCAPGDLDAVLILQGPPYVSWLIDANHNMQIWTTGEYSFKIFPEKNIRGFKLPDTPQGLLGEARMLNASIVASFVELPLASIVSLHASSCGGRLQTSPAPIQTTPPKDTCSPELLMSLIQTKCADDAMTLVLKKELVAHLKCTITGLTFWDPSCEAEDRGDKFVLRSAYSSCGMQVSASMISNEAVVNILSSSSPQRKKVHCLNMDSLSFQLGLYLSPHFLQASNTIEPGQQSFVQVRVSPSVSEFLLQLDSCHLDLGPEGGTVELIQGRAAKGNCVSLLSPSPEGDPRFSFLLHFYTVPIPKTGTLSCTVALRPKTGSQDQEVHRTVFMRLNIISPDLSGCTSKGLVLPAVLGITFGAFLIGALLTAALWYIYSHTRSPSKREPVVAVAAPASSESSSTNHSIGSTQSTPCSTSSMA
Kind of assay: co-IP; PC3-M cells transiently co-transfected; surface proteins crosslinked with 2 mM DTSSP before lysis (10 mM Tris HCl pH 7.4, 145 mM NaCl, 10% glycerol, 0.5% NP-40); IP with anti-FLAG or anti-Myc overnight at 4°C; crosslinker cleaved before Western blot.

Assay [1] addresses Myc-tagged ActRIIA lacking the kinase domain. Described as above.
For assay [2], the target named is FLAG-tagged BMPRII with the tail domain deleted. Described as above.
The target is the same in assay [3]. Kind of assay: condition: only without crosslinking of cell surface proteins; co-IP; as a1 but surface proteins of the PC3-M cells not crosslinked (-); FLAG-BMPRII immunoprecipitated, blot for endoglin.

These are yes or no findings as the source states them, for the method shown. In cells and extracts the contact can be indirect. For some of these results: A result given as binding can be weak or reduced; the word gives no strength. Where a sequence is shown, tags or fusion partners need not be part of it.

On to “Myc-tagged ActRIIA lacking the kinase domain (domain or fragment)”, for which the binding entry with FLAG-tagged endoglin was “binds”.

B1: FLAG-tagged endoglin (receptor, UniProt P17813 26-658)
chain: T1 sequence
Take B1: the binding entry in assay [1] is “binds”.

B2: untagged endoglin (receptor, UniProt P17813 26-658)
chain: T1 sequence
In the case of B2, the binding result in assay [2] is recorded as “binds”; in assay [3], “no binding”.

Source of the values: publication PMC3742533.
